Results: PubChem BioAssay AID1347423 (Functional Genomics Laboratory (NCATS/FGL), 2020)
The whole screen tested about 52,000 sequences, of which about 210 (0.4%) were called active.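 Rule for the calls: active = gene whose silencing raises cell survival under the drug, median off-target-corrected z-score across its silencing RNAs 2 or more; inactive = the rest.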 The list shows a part of the results.

assay: Resistance to Poly (ADP-Ribose) Polymerase inhibitor: Gene Identification via Genome-wide siRNA Screen; details: mouse BRCA2 R2336H ES cells, olaparib, CellTiter-Glo viability; stronger effect = higher value
Summary of the method: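 Mouse BRCA2 R2336H ES cells were reverse-transfected with siRNA (20 nM final), treated at 48 h with 500 nM olaparib, and read by CellTiter-Glo after 72 h. Scores: MAD-based z per siRNA, median per gene, seed off-target correction.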

| Sequence | z-score |
| --- | --- |
| GGAAGCUCAUUUUCACGUGTT against Slc22a19 | inactive: 0.555 |
| GGCAAGCCAGAGAAACUGATT against 3100004P22Rik | inactive: -1.83 |
| GGGCUUGAGAAAGAGGAUUTT against E330021D16Rik | inactive: 0.0729 |
| GAGGGCCAUCUCUGACAUGTT against Avp | inactive: -0.814 |
| GGUAUUCUUGGAAGGAGGGTT against Prss22 | inactive: 1.18 |
| GGAGCUGUUCAUCGAACAATT against Nol7 | inactive: 0.301 |
| GGUUACCUGCUGUGUUUUGTT against Muc2 | inactive: 1.79 |
| GGGAAGCCAAACAGAAUCATT against 1700041G16Rik | inactive: -0.261 |
| GAAAACAGAAAACCCACAGTT against V1ri8 | inactive: 1.66 |
| CAACACCAUUCCUAAAUCATT against 4931407G18Rik | inactive: 0.0414 |
| CCACUUCUCAGGUUAAUGGTT against Fen1 | inactive: 0.421 |
| GCUGAUCCACGACUACUUGTT against 1700012B15Rik | inactive: 0.191 |
| GGCAAAAAUACCCAAUUUUTT against Timm22 | inactive: 2.13 |
| GGAGCUCGAAAAAUUUCAATT against Gm580 | inactive: -0.345 |
| CGUGUGAAGUAAAGAUGUUTT against Mrp63 | inactive: -0.663 |
| GAAUUUGGACAUAGUUAUGTT against Ptcra | inactive: -0.095 |
| GCUUUUAGGCACCUGUGCUTT against 1100001G20Rik | inactive: 0.129 |
| GGCCGUAUCUGUCUCCUUUTT against Defcr | inactive: 0.351 |
| GCAGUUUGUGGAUAUGUCATT against Treh | inactive: 2.11 |
| GGUUUAUGAUCCACUUUCCTT against Ipp | inactive: -0.00412 |
| GGACAAGAAGCUGUCCAAGTT against Atoh7 | inactive: -1.83 |
| GCACCUCCACAAGAAUGAATT against Six2 | inactive: 0.257 |
| GGCCCUUUGAAGAGAAUCGTT against Hnrpul1 | inactive: -0.699 |
| CGAGAAAAUGGAUUCUACCTT against Atp10d | inactive: -0.182 |
| GGAUGAUGCCGUGUAUGAGTT against Kirrel3 | inactive: 0.985 |
| GGGAAGGAACAGUAAAUAATT against 2310012P17Rik | inactive: -2.08 |

An excerpt taken from the entries so far:

| Sequence | z-score |
| --- | --- |
| GGAAGCUCAUUUUCACGUGTT against Slc22a19 | inactive: 0.555 |
| GGCAAGCCAGAGAAACUGATT against 3100004P22Rik | inactive: -1.83 |
| GGGCUUGAGAAAGAGGAUUTT against E330021D16Rik | inactive: 0.0729 |
| GAGGGCCAUCUCUGACAUGTT against Avp | inactive: -0.814 |
| GGUAUUCUUGGAAGGAGGGTT against Prss22 | inactive: 1.18 |
| GGAGCUGUUCAUCGAACAATT against Nol7 | inactive: 0.301 |
| GGUUACCUGCUGUGUUUUGTT against Muc2 | inactive: 1.79 |
| GGGAAGCCAAACAGAAUCATT against 1700041G16Rik | inactive: -0.261 |
| GAAAACAGAAAACCCACAGTT against V1ri8 | inactive: 1.66 |
| CAACACCAUUCCUAAAUCATT against 4931407G18Rik | inactive: 0.0414 |
| CCACUUCUCAGGUUAAUGGTT against Fen1 | inactive: 0.421 |
| GCUGAUCCACGACUACUUGTT against 1700012B15Rik | inactive: 0.191 |
| GGCAAAAAUACCCAAUUUUTT against Timm22 | inactive: 2.13 |
| GGAGCUCGAAAAAUUUCAATT against Gm580 | inactive: -0.345 |
| CGUGUGAAGUAAAGAUGUUTT against Mrp63 | inactive: -0.663 |
| GAAUUUGGACAUAGUUAUGTT against Ptcra | inactive: -0.095 |
| GCUUUUAGGCACCUGUGCUTT against 1100001G20Rik | inactive: 0.129 |
| GGCCGUAUCUGUCUCCUUUTT against Defcr | inactive: 0.351 |
| GCAGUUUGUGGAUAUGUCATT against Treh | inactive: 2.11 |
| GGUUUAUGAUCCACUUUCCTT against Ipp | inactive: -0.00412 |
| GGACAAGAAGCUGUCCAAGTT against Atoh7 | inactive: -1.83 |

The results go on:

| Sequence | z-score |
| --- | --- |
| GGUGUCAGGAUUUUAUAACTT against 4833442J19Rik | inactive: 0.932 |
| GGUGUUCCUCAUGGUGACCTT against BC021367 | inactive: -0.143 |
| GGACUUCUUAUGGAAAAGATT against Xlr5 | inactive: -0.438 |
| GGUUUUUAACAAGCUAAUCTT against Bzw1 | inactive: -0.651 |
| GGAUUCUUCACAGCGGAUGTT against MGC49146 | inactive: 1.15 |
| GCACUGCUGUCUAUAUUCATT against Olfr117 | inactive: -0.153 |
| GCUUUGACUUGAAACAAAATT against LOC574530 | inactive: 0.897 |
| GGCUUACUUCAUUUCAGUUTT against Zfp526 | inactive: -0.283 |
| GCUACUGCACAAAGUUACGTT against 1700012M14Rik | inactive: -0.0568 |
| GGUUUUUGCUGAGUCUUGCTT against Olfr299 | inactive: 1.22 |
| GCAGCUAAGCAACUUCAAUTT against 2310005N03Rik | inactive: 0.526 |
| GGUGCAAAGACAAGUUAAATT against Shh | inactive: -0.221 |
| CCAAGCCCACAACGAUCGUTT against Triobp | inactive: 0.0901 |
| CCUCUCUACUACAGACCUUTT against Olfr1058 | inactive: -0.92 |
| ACCUGUUGAGCAAAGAAUGTT against Cst8 | inactive: 0.14 |
| GGAGAUUCCAGAGUUCUUGTT against A930040G15Rik | inactive: 0.0832 |
| GCAUGUGGAGAACGACUAUTT against 3110043J09Rik | inactive: -2.24 |
| GCUAUCCUAAUCCUCAAUATT against BC020151 | inactive: -0.862 |
| GCACGGAAGAAUCCAAAGATT against C030011O14Rik | inactive: -2.23 |
| GCACCUGACAGAUACUUCCTT against 2610034N24Rik | inactive: -2.31 |
| CCAUCUGCAUCAAGAGAAATT against Kirrel2 | inactive: -0.354 |
| GGACAAUAGAUGUGUUUGATT against Ddb2 | inactive: 0.492 |
| GCCAGUCAUUAUAGUUAACTT against 1300013J15Rik | inactive: -0.121 |
| GGGAGAGUCUUUUUUUAAATT against 1600019O04Rik | inactive: -0.0165 |
| CCUACGACCUUCUCUACCATT against 2310046G15Rik | inactive: 0.34 |
| CCUAACUUCACCAUAAUCATT against Xrn2 | inactive: 0.382 |

| Sequence | z-score |
| --- | --- |
| GGUCAAAAUGUCUUUGGAATT against Rgs1 | inactive: 0.494 |
| CGGUUAGACAGUGCACCAATT against Dnm1 | inactive: -1.53 |
| ACUUCCUGAUUGAGAGAAATT against Olfr497 | inactive: -1.1 |
| GGUGCUCAGCAUGUUUGCUTT against Avpr1b | inactive: 0.497 |
| GCACCAGCUCUAAUUCAGATT against 5031400M07Rik | inactive: -1.12 |
| GCCCAUGGAUACAGAAACUTT against AW319487 | inactive: -0.374 |
| GCACCAGGAGUUACCUGUATT against Tex2 | inactive: -0.278 |
| GGCUGUCUUACAAUGUAAUTT against Gabrb2 | inactive: 0.0623 |
| GGGAAUGAACCUAGAAGAGTT against Ecgf1 | inactive: 0.587 |
| GGUCAUGAGAUCAGCCCUUTT against Adh5 | inactive: -1.78 |
| CCAUGUCAAGCGGAUAGCATT against Mc5r | inactive: -0.954 |
| GCAACUUGUGCCUCUGCUATT against Dhh | inactive: -1.64 |
| GGACAAAAGACAAUCGAGATT against Adprtl2 | inactive: -0.365 |
| GGUGUGGUACGACAUGUUCTT against 2610510L01Rik | inactive: -0.332 |
| CCUCAGGUUAUUGAAUAUUTT against Rapgef6 | inactive: 0.762 |
| GGAUUUCAUGAUUCAGGGUTT against Ppih | inactive: 0.677 |
| GGAAGUGGAACACAUGAUCTT against Zfp346 | inactive: -0.778 |
| CCGGAUGGGAAUCGCUAAATT against 9330176C04Rik | inactive: 0.418 |
| GGUCUUAUGGGAAAAUUAGTT against Lamc2 | inactive: 0.954 |
| GGAAGUAUGUGUUUCUCAGTT against A030004J04Rik | inactive: 2.08 |
| GGAUGGUUUUCGUCUGACGTT against Umod | inactive: -2.93 |
| GGUUAUGAUGGGACUUCUCTT against Pr1 | inactive: -0.336 |
| GGUUAUAACAGUCUUAGCATT against 4930577M16Rik | inactive: 0.687 |
| GGGAUAUGUGAAGCCUCAGTT against Mospd3 | inactive: 0.463 |
| CGGUGCCCUACAUGCUAAATT against Ebi3 | inactive: -0.141 |
| CCGUGAUAAUGUAACACCUTT against A230098A12Rik | inactive: 2.12 |

| Sequence | z-score |
| --- | --- |
| CGAGAUGUGUGUUAAAGGATT against D530033C11Rik | inactive: 0.114 |
| GGGAUAGGAUUGCAUCAGUTT against Olfr356 | inactive: -0.532 |
| GGGCAUCAAAUUAAGAUCATT against D830007F02Rik | inactive: 1.16 |
| GUGUGCCACAUACUGGUCCTT against Olfr806 | inactive: 0.479 |
| GGGUUAUCAACAAAAAUGATT against Agtr1b | inactive: -1.09 |
| GGAGUCCUGUUCUUCUUUATT against Trpv4 | inactive: -0.684 |
| GGAAAAUGUUUGGUGUAAUTT against Zfp85-rs1 | inactive: 0.943 |
| GGAAUGGGAUUACACCUACTT against 1110002H13Rik | inactive: -0.223 |
| CCUUCUCUAGCUAUGGCUATT against Gabrg3 | inactive: -0.341 |
| GGGUUUUGACUUUCGUUUUTT against Etnk2 | inactive: 1.22 |
| GCUUGGCCGUGAUUGUUGCTT against B930041F14Rik | inactive: 0.0533 |
| GGAAUAUUCACAGUCCGAGTT against Tex27 | inactive: 0.0149 |
| GGAGGAUCAUGGUUGGGAUTT against Zfp192 | inactive: -0.117 |
| GAGUGUUUCAGAUUCUUCATT against Klra8 | inactive: 0.37 |
| GCUCAGAUAAUGGCCUACATT against Smarca4 | inactive: -1.27 |
| GGACUUCUCCAUCCUGCUUTT against Alg1 | inactive: 0.382 |
| CCUUUAAAGGGCAUAUUCATT against Rsn | inactive: 0.914 |
| GGAAAAACUACUCAAGGAGTT against B130050I23Rik | inactive: -0.909 |
| GGUGUUGGGCUACAAGGAUTT against Epb4.9 | inactive: 0.944 |
| GCUCCGGAACAGAUAAAACTT against Csrp2bp | inactive: 0.355 |
| GGACAAUUUUUCUUCUCCATT against Tsnax | inactive: 1.26 |
| GCCCUUACAUAAUAGCUUGTT against Tacr2 | inactive: 0.0384 |
| GGAGCAGGUGUUGAAAGACTT against Gtf2a1lf | inactive: 0.0481 |
| CCCAGCAGAAUAACUGCCATT against 2610017I09Rik | inactive: -0.905 |
